In PubChem BioAssay AID493014 (National Center for Advancing Translational Sciences (NCATS), 2011):
The other results are listed elsewhere or left out. These are further read-outs of the screen, such as a control signal, another cell line or another target. No call is given for them. The list favours compounds with an active or inconclusive main result. The note in brackets gives the kind of curve behind each potency; many fits are weak.

Experiment: qHTS Assay to Find Inhibitors of Chronic Active B-Cell Receptor Signaling
Conditions: ABC-DLBCL IkBa-CBG/CBR reporter, luminescence ratio (green luciferase fused to IkBa over red control in TMD8 lymphoma cells), 4 h
How it was run: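 TMD8 human ABC-DLBCL cells with doxycycline-inducible IκBα–green luciferase fusion and unfused red luciferase, in 0.5% FBS medium; compounds up to 46 uM, 4 h at 37C. Green/red luminescence ratio, filter-overlap corrected, fitted to concentration-response curves.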

[1] = measured here: CBR red luminescence, cell number
[2] = measured here: IkBa-CBG green luminescence

| Compound | AC50 [1] | AC50 [2] |
| --- | --- | --- |
| O=C(Nc1ccc(Br)cc1)c1cc(S(=O)(=O)NC2CCCC2)ccc1F | 3.98 µM [falling, full curve] |  |
| CC(=O)c1cccc(NC(=O)C(OC(=O)c2ccccc2NS(=O)(=O)c2cccs2)c2ccccc2)c1 (stereo unspecified) | 3.66 µM [rising, full curve, poor fit] |  |
| CNC(=S)N/N=C/c1cc(C)n(-c2ccc(Cl)c(Cl)c2)c1C |  | 18.4 µM [falling, single point] |
| CC(C)(C)c1ccc(C(=O)c2c[nH]c(C(=O)NCc3ccco3)c2)cc1 | 17.8 µM [rising, partial curve] |  |
| Cc1cccc(NC(=O)c2ccc3c(c2)OCCO3)c1C | 11.2 µM [falling, partial curve, poor fit] |  |
| CCCCCC(=O)Nc1cc(N(C)C)nc2ccccc12 | 6.51 µM [rising, single point] |  |
| CCCc1cc(=O)n2[nH]c(NCc3ccccc3Cl)nc2n1 | 20 µM [falling, partial curve] |  |
| COc1ccc(C(=O)Nc2ccc3c(c2)n(C)c(=O)n3C)cc1OC |  | 25.1 µM [falling, partial curve, poor fit] |
| Cc1ccc(N2C(=O)c3cccc4c(N)ccc(c34)C2=O)c2cccnc12 | 3.98 µM [rising, partial curve] | 1.58 µM [falling, partial curve] |
| O=C1Nc2ccccc2C(O)(C(=O)NCc2ccco2)N1c1ccc(Cl)cc1 (stereo unspecified) | 2.06 µM [rising, partial curve, poor fit] |  |
| COc1ccc(-c2ccc(CCC(=O)O)n2NC(=O)c2ccc(O)cc2)cc1 | 22.4 µM [falling, single point] |  |
| O=C(Nc1nnc(-c2ccccc2Cl)o1)c1nc2ccccc2s1 | 3.66 µM [falling, partial curve] |  |
| CCCOc1ccc(CN(CCO)CCO)cc1C(=O)OC | 6.31 µM [falling, single point] |  |
| COc1ccc(OC)c(NC(=O)C2CCCN2S(=O)(=O)c2cccc3nsnc23)c1 (stereo unspecified) | 25.1 µM [rising, single point] |  |
| CN(c1ccc(C(=O)N2CCCCCC2)cc1)S(=O)(=O)c1ccc(Cl)cc1 | 10 µM [falling, partial curve, poor fit] |  |
| CCOC(=O)CSc1nnc(CNC(=O)c2cccc(C)c2)n1C | 31.6 µM [rising, single point] |  |
| COC(=O)c1c(NC(=O)COC(=O)Cn2cnc3ccccc32)sc2c1CCCC2 | 14.6 µM [rising, partial curve] |  |
| N=c1n(Cc2ccccc2)c2ccccc2n1Cc1ccccc1 | 29.1 µM [falling, single point] |  |
| O=C1c2ccccc2C(=O)N1c1ccc(Cl)cn1 | 16.4 µM [rising, partial curve, poor fit] |  |
| COc1ccc(CNc2ccc(C)c(C)c2)cc1 | 35.5 µM [rising, single point] |  |
| CCOC(=O)c1sc2nc(C)nc(NCCc3ccccn3)c2c1C | 15.8 µM [falling, partial curve, poor fit] |  |

Given tab-delimited: entries from further up
Compound	AC50 [1]	AC50 [2]
CCCOc1ccc(CN(CCO)CCO)cc1C(=O)OC	6.31 µM [falling, single point]	
COc1ccc(OC)c(NC(=O)C2CCCN2S(=O)(=O)c2cccc3nsnc23)c1 (stereo unspecified)	25.1 µM [rising, single point]	
COC(=O)c1c(NC(=O)COC(=O)Cn2cnc3ccccc32)sc2c1CCCC2	14.6 µM [rising, partial curve]	

(cont.)

| Compound | AC50 [1] | AC50 [2] |
| --- | --- | --- |
| CCCn1c(=O)c(C(=O)NCc2ccco2)c(O)c2ccccc21 | 5.62 µM [rising, single point] |  |
| CC(C)CCNC(=O)C1CCN(S(=O)(=O)c2ccc3c(c2)CCC(=O)N3)CC1 | 25.9 µM [rising, partial curve, poor fit] |  |
| C=CC[C@@H](CC(=O)N(CCO)Cc1ccccc1)C(=O)N[C@H](COC(=O)[C@@H](CC=C)Cc1ccc(F)cc1)Cc1c[nH]c2ccccc12 | 9.2 µM [falling, partial curve] |  |
| Cc1cc(C)n2nc(SCc3cc(=O)oc4cc(O)ccc34)nc2n1 | 20.6 µM [rising, partial curve, poor fit] |  |
| Cn1c(SCC(=O)Nc2nc(C(C)(C)C)cs2)nnc1C1CC1 | 14.1 µM [rising, single point] |  |
| Cc1ccc(N(CCC#N)C(=O)CCl)cc1C | 20.6 µM [falling, single point] |  |
| Cc1ccc(S(=O)(=O)Nc2ccccc2N(C)S(=O)(=O)c2ccc(C)cc2)cc1 | 5.8 µM [falling, single point] |  |
| OCCN(CC(O)Cn1ccc2ccccc21)CC(O)Cn1ccc2ccccc21 (stereo unspecified) | 10 µM [falling, partial curve, poor fit] |  |
| COc1ccc(NC(=O)c2sc(NC(=O)C3CC3)nc2C)cc1 | 8.91 µM [falling, partial curve, poor fit] |  |
| CCc1cc(C(=O)COc2ccccc2F)c(O)cc1O | 3.66 µM [rising, full curve, poor fit] |  |
| O=C(Nc1ccc2c(c1)OCO2)N1CCN(S(=O)(=O)c2ccc(Cl)cc2)CC1 | 6.51 µM [falling, single point] |  |
| Cc1ccc(S(=O)(=O)Oc2ccccc2/C=N/Nc2ccc(C(=O)O)cc2)cc1 | 1.78 µM [falling, partial curve] |  |
| CC1=C(C(=O)Nc2cccnc2)C(c2ccccn2)n2nnnc2N1 (stereo unspecified) | 35.5 µM [falling, single point] |  |
| COc1ccc(OCC(O)Cn2c(=N)n(CCN3CCCCC3)c3ccccc32)cc1 (stereo unspecified) | 35.5 µM [falling, single point] |  |
| O=[N+]([O-])c1c(Nc2ccccn2)cc(Cl)c2nonc12 | 35.5 µM [rising, single point] |  |
| O=C(OCn1nnc2ccccc2c1=O)C1COc2ccccc2O1 (stereo unspecified) | 4.11 µM [rising, single point] |  |
| Cc1ccc(-c2cc(-c3ccccc3)c(C#N)c(N)n2)o1 | 11.6 µM [falling, partial curve] | 13 µM [rising, partial curve, poor fit] |
| O=C(CCC1N=C2c3ccccc3N=C(SCc3ccc(Cl)cc3)N2C1=O)NCc1cccs1 (stereo unspecified) | 15.8 µM [falling, single point] |  |
| COCC(C)n1c(C)cc(C(=O)COC(=O)C2=NN(c3ccccc3)C(=O)CC2)c1C (stereo unspecified) | 35.5 µM [rising, single point] |  |
| Cc1nnc(SCC(=O)N2N=C(c3ccc(Cl)cc3)CC2c2ccco2)[nH]c1=O (stereo unspecified) | 2.24 µM [falling, partial curve, poor fit] |  |
| CCSc1nnc(NC(=O)CSc2nnc(CNC(=O)c3cc(OC)c(OC)c(OC)c3)o2)s1 | 29.1 µM [rising, single point] |  |

| Compound | AC50 [1] | AC50 [2] |
| --- | --- | --- |
| COc1ccc(OC)c(N(CC(=O)Nc2ccc3c(c2)OCO3)S(=O)(=O)c2ccccc2)c1 | 29.1 µM [falling, single point] |  |
| CN(C)c1cccc(C(=O)NNC(=O)C23CC4CC(CC(C4)C2)C3)c1 | 0.326 µM [rising, full curve, poor fit] |  |
| COc1ccc(/C=C2/S/C(=N/N=C3\CC4CCC3(C)C4(C)C)NC2=O)cc1 (stereo unspecified) | 1.58 µM [rising, full curve, poor fit] |  |
| COc1ccc(Oc2cc(C)c3cccc(C)c3n2)cc1 | 29.1 µM [rising, single point] |  |
| COC(=O)CCN(C(=O)c1cc(OC)c(OC)c(OC)c1)c1ccccn1 | 29.1 µM [rising, single point] |  |
| Cc1cccc(NC(=S)NCCSc2ccc(Cl)cc2)c1 | 2 µM [rising, partial curve, poor fit] |  |
| COc1ccc(OC)c(C(=O)c2coc3ccc(OCC(=O)O)cc23)c1 | 32.6 µM [falling, single point] |  |
| S=c1[nH]nc(Cc2cccc3ccccc23)o1 | 6.51 µM [rising, partial curve, poor fit] |  |
| Cc1cc(C(=O)OCC(=O)c2cccc([N+](=O)[O-])c2)c2cccc(C)c2n1 | 0.282 µM [falling, partial curve, poor fit] |  |
| O=C(c1ccco1)N1CCn2cccc2C1c1ccccc1 (stereo unspecified) |  | 6.31 µM [rising, full curve, poor fit] |
| O=C1C=C(c2ccc(OC(F)(F)F)cc2)C[C@@H](c2ccc(Cl)cc2)C1 | 18.4 µM [rising, single point] |  |
| CC(C)Nc1nc(Cl)nc(N(C#N)CN2C(=O)c3ccccc3C2=O)n1 | 29.1 µM [falling, single point] | 29.1 µM [rising, partial curve, poor fit] |
| Cc1ccc2sc(N(CCCN(C)C)C(=O)c3ccc(Br)s3)nc2c1C | 8.91 µM [falling, partial curve, poor fit] |  |
| Cc1ccc(-c2c[n+](CC(=O)c3ccc(Br)cc3)c3n2CCCCC3)cc1 | 35.5 µM [falling, single point] |  |
| Cc1ccc(C(=O)N/N=C\c2ccc[nH]2)cc1[N+](=O)[O-] | 10 µM [falling, partial curve, poor fit] |  |
| CCOc1cc(/C=N\NC(=O)Cn2nc([N+](=O)[O-])cc2C)ccc1OCc1cccc2ccccc12 |  | 6.51 µM [rising, partial curve, poor fit] |
| COc1ccc(-c2noc(-c3cc(C)cc(C)c3)n2)cc1OC | 3.66 µM [rising, full curve] |  |
| COc1ccc(-c2nnc(SCC(=O)NC3CCCCC3)o2)cc1OC | 2.06 µM [falling, single point] |  |
| Cc1cccc(NCc2cccc3ccccc23)n1 | 11.2 µM [rising, partial curve, poor fit] |  |
| CCCCSc1nc2c(cnn2-c2ccc(Cl)cc2)c(=O)[nH]1 | 29.1 µM [rising, single point] |  |
| COc1ccc(-c2cc(=O)c3c(O)cc(O[C@@H]4O[C@H](CO[C@@H]5O[C@@H](C)[C@H](O)[C@@H](O)[C@H]5O)[C@@H](O)[C@H](O)[C@H]4O)cc3o2)cc1O | 5.62 µM [rising, single point] |  |
